We go through 55 compounds from PubChem BioAssay AID1458 (National Center for Advancing Translational Sciences (NCATS), 2008).

Each structure is given as a SMILES string. Among all 210,000 compounds or so, about 5,900 (2.8%) were called active. About 5% were inconclusive and are not listed. Calls follow the shape of the dose curve; as a rule, active = well fitted activation curve with a large enough effect; inconclusive = small, poorly fitted or top-dose-only effect; inactive = no such curve, though single readings can be large or run the other way. Only a part is listed here, and it is no random draw. The source gives no active or inactive call for entries shown without one.
Potency is read from the fitted curve at half-maximal effect.

A short description of the assay: qHTS Assay for Enhancers of SMN2 Splice Variant Expression. Also: nearly all actives have a fitted effect of over 55% in size. As to activity change, positive = activation: % of control where 0% means no effect. Particulars: HEK293 SMN2-luciferase splicing reporter, luminescence, 30-36 h; activity change, positive = activation: at 46.1 µM (top of the series) unless noted. The gist of the method: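 HEK293 cells carry an SMN2 […]–luciferase reporter in which exon 7 inclusion puts luciferase in frame. Cells were plated 10-12 h before compound addition, then incubated 30-36 h at 37C. ONE-Glo luminescence was read; sodium butyrate at 4.5 mM final served as control.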
As to `CC(Oc1ccc(Cl)cc1Cl)C(=O)NC(=S)N1CCc2ccccc21` (stereo not given), the activity change, positive = activation is -46%.
On to `Cc1cccn2c(=O)c3cc(C#N)c(=O)n(-c4nnc(SCc5ccc(F)cc5)s4)c3nc12`, for which the activity change, positive = activation was found to be 22.4%.
Turning to `O=C(CCCN1C(=O)/C(=C/c2ccccc2Cl)SC1=S)Nc1ccccn1`, the activity change, positive = activation is -76.6%.
Turning to `CCOC(=O)CSC1=Nc2ccccc2C2=NC(CC(=O)NCc3cccs3)C(=O)N12` (stereo not given), the activity change, positive = activation came to 25.5%.
On the same count and under the same terms, the same measure for `N#Cc1ccc(CN2CCC3(CC2)CCN(S(=O)(=O)c2ccccc2)CC3)cc1`: inactive: -71.5%; for `COc1cccc(NC(=O)/C(C#N)=C/c2c(C)n(Cc3ccccc3)c3ccccc23)c1`: inactive: -51.5%.
With `Cc1cccc(-c2nc3cc([N+](=O)[O-])ccc3o2)c1`, the Potency is active: 15.8 µM.
`Cc1nnc(SCC(=O)Nc2ccc(Oc3ccccc3)cc2)n1N`: the activity change, positive = activation came to 35.6%.
As for `N#CCSc1nc2[nH]ncc2c(=O)n1-c1ccccc1Br`, the activity change, positive = activation was -72.1%.
Regarding `CCOc1cc(/C=C2/C(=O)ON=C2C)ccc1OCc1ccccc1F`, the activity change, positive = activation is -56.8%.
As to `Cc1ccc(C)c(S(=O)(=O)N2C(=S)NC(=O)C2CC(C)C)c1` (stereo not given), the activity change, positive = activation was found to be 23.4%.
Regarding `CC1CCN(C(=O)COC(=O)[C@H](C)NS(=O)(=O)/C=C/c2ccccc2)CC1`, the activity change, positive = activation came to 48.7%.
On to `O=C(CN1C(=O)NC(Cc2c[nH]c3ccccc23)C1=O)Nc1cccc(S(=O)(=O)N2CCCCCC2)c1` (stereo not given), for which the “activity change, positive = activation” value was inactive: -36.6%.
The same measure, in the same setting: for `Cc1ccc(S(=O)(=O)N2CCN(CC(=O)Nc3ccc4c(c3)CCC4)CC2)cc1C` the value was -48%.
In the case of `COC(=O)c1ccc(C(=O)OC)c(NC(=O)COC(=O)C23CC4CC(CC(O)(C4)C2)C3)c1`, the activity change, positive = activation is 39.7%.
Still for that read-out and setting: for `CCOCCCNC(=O)c1ccccc1Br` the value was 37.1%; for `COC(=O)CCC(=O)Nc1cccc(C(=O)Nc2cccc(Cl)c2)c1`, 15.6%; for `O=C(CCCn1c(=S)[nH]c2cc3c(cc2c1=O)OCO3)N1CCN(c2ccc(Cl)cc2)CC1`, inactive: -60%.
In the case of `Cc1nc(NCc2ccccn2)c2ccccc2n1`, the activity change, positive = activation is -75.7%.
Regarding `CCSc1ncnc2c1sc1nc3c(cc12)COC(C)(C)C3`, the Potency was active: 12.6 µM.
For the compound `N#C/C(=C1\CCCN1)c1nc(-c2ccccc2)cs1`, the activity change, positive = activation amounted to 40%.
On the same count and under the same terms, for `c1ccc2[nH]c(SCc3cn4ccccc4n3)nc2c1` the value was 38.6%; for `CC1(C)CC(=O)C=C(NCc2ccco2)C1`, 27.3%; for `Nc1ncnc2nc(SCc3ccc(Cl)cc3Cl)[nH]c12`, inactive: -31.2%.
For `O=C(/C=C/c1ccco1)NCCc1ccccc1`, the activity change, positive = activation was 112%.
With `COc1cc(C2c3c(oc4ccccc4c3=O)C(=O)N2CCN2CCOCC2)cc(OC)c1OC` (stereo not given), the activity change, positive = activation amounted to 31.2%.
`CC(C)(C)C(=O)CSc1nc2c(c(-c3cccs3)c1C#N)CCC2`: the activity change, positive = activation is -2.6%.
For `Brc1cccc(-c2nnc3n2CCCCC3)c1`, the activity change, positive = activation stood at 38.5%.
`O=C1CN(C(=O)c2ccccc2F)c2ccccc2N1`: the activity change, positive = activation turned out to be 39.7%.
Consider `Cc1ccc(C(=O)Nc2ccc3c(c2)OCCO3)o1`, for which the activity change, positive = activation turned out to be 30.1%.
On the same count and under the same terms, for `CN(C)c1ccc(/C=C2/NC(=O)NC2=O)cc1` the value was 38%.
Consider `O=C(CSc1nnc(NC2CCCCC2)s1)Nc1ccc2c(c1)C(=O)c1ccccc1C2=O`, for which the Potency is active: 11.2 µM.
With `COc1ccccc1OCC(=O)Nc1cccc(-c2nnc(-c3ccco3)o2)c1`, the Potency is active: 17.8 µM.
As to `CC1(C)Cc2c(sc3nc(N/N=C/c4ccccc4)[nH]c(=O)c23)CO1`, the “activity change, positive = activation” value was inactive: -40.3%.
On the same count and under the same terms, the same measure for `O=C(NCc1ccoc1)c1ccc(NC(=O)c2ccccc2Cl)cc1`: 19.1%.
For `CCOc1ccc2nc3sc(C(=O)N4CCOCC4)c(N)c3cc2c1`, the Potency is active: 1.26 µM.
Take `CC(=O)N1CCc2cc(S(=O)(=O)NCCC(=O)NC3CCN(Cc4ccccc4)CC3)ccc21`: the activity change, positive = activation worked out at 21.1%.
For `CN(C)CCCN1C(=O)c2cccc3c([N+](=O)[O-])ccc(c23)C1=O`, the “activity change, positive = activation” value was inactive: -36.2%.
For `Clc1ccc(N/N=C/c2cccs2)nn1`, the activity change, positive = activation was 92.9%.
As for `O=C(CCCc1ccccc1)N1CCN(c2ccc([N+](=O)[O-])cc2)CC1`, the activity change, positive = activation was -33.2%.
Consider `Clc1ccc(-n2nnnc2CN2CCOCC2)cc1`, for which the activity change, positive = activation came out at 32%.
In the case of `Nn1cnc2sc3c(c2c1=O)CCC3`, the activity change, positive = activation worked out at 35.4%.
Same read-out and setting: the same measure for `Cc1ccnc2nc(C(=O)Nc3nnc(CC(C)C)s3)nn12`: -32.6%; for `CCC(=O)c1ccc(OCc2ccc(C#N)cc2)cc1`: 35.7%.
Consider `O=C(N1CCCCC1)N1CCCN(C(=O)N2CCCCC2)CC1`, for which the activity change, positive = activation came out at 35.9%.
With `CCOC(=O)N1CCC(NC(=O)c2cccnc2SC)CC1`, the activity change, positive = activation turned out to be 30.8%.
With `COCC(C)NC(=O)c1noc2c1CCc1cc(OC)ccc1-2` (stereo not given), the Potency was active: 10 µM.
`O=C(Nc1ccc(S(=O)(=O)N2CCCC2)cc1)c1ccc(OCC2CCCO2)cc1` (stereo not given): the “activity change, positive = activation” value was inactive: -76.1%.
For `O=C1c2ccccc2C(=O)N1c1ncccn1`, the activity change, positive = activation stood at 39.5%.
For the compound `CC(=O)c1sc(Nc2nc3ccc(F)cc3s2)nc1C`, the Potency is active: 12.6 µM.
Turning to `Cc1ccc(O)c(C(=O)CC(=O)c2cccc(F)c2)c1`, the Potency is active: 35.5 µM.
In the case of `Cc1ccc(O)c(NC(=O)c2noc3c2CCc2ccccc2-3)c1`, the “activity change, positive = activation” value is inactive: -50.6%.
For the compound `CCSc1n[nH]c(=S)s1`, the activity change, positive = activation was 47.6%.
As for `COC(=O)c1ccc(CSc2nnc(C)n2N)o1`, the activity change, positive = activation was -7.68%.
On to `Cc1nc(CC(=O)Nc2ccc(C(N)=O)cc2)cs1`, for which the “activity change, positive = activation” value was inactive: -26%.
